Laboratory results: PubChem BioAssay AID1259308 (NCATS, 2017)
The deposit covers about 59,000 reagents; below is an unselected part. About 1,510 of them (2.6%) were called active. 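Calls use total luciferase alone and ignore viability, so some active siRNAs may act by altering cell number.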 The numbers tell different reagents against one gene apart. No sequences are given here.

Screen: 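Genes whose loss raises luciferase production in HEK293 cells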 (primary screen)
Cell system: human HEK293 embryonic kidney cells stably expressing firefly luciferase (HEK-CMV-Luc2-Hygro)
Knock-down reagent: single siRNA against human genes, 0.8 pmol siRNA per well
Duration: 72 h
Read-out: 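Reporter luminescence and viable-cell signal on separate replicate plates, given as percent of non-targeting control and median/MAD z-scores, plus per-cell luciferase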
Scale: total luciferase, z-score and total luciferase, % of control: higher = more reporter protein produced; luciferase per cell, z-score: higher = more reporter output per viable cell; viable cells, % of control: higher = more viable cells
Rule for the call: 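Active when the median/MAD z-score for overall luciferase is greater than 3; a gene was taken forward for validation with new siRNAs if at least two of its three siRNAs passed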
Calls: active = raised luciferase; inactive = no rise

Gene | reagent | total luciferase, z-score | total luciferase, % of control | luciferase per cell, z-score | viable cells, % of control | activity call
LATS2 (GeneID 26524) | 1 | -0.45 | 72.9 | 0.393 | 73.5 | inactive
LATS2 (GeneID 26524) | 2 | 1.99 | 122 | 1.47 | 92.3 | inactive
LATS2 (GeneID 26524) | 3 | -2.47 | 32.7 | -2.13 | 64 | inactive
PSCA (GeneID 8000) | 1 | 1.72 | 116 | 0.924 | 102 | inactive
PSCA (GeneID 8000) | 2 | 0.24 | 86.7 | 1.19 | 70.7 | inactive
PSCA (GeneID 8000) | 3 | 0.473 | 91.3 | 0.429 | 91.1 | inactive
MTFR1L (GeneID 56181) | 1 | -1.28 | 56.5 | -1.36 | 90.3 | inactive
MTFR1L (GeneID 56181) | 2 | 0.206 | 86 | -0.189 | 101 | inactive
MTFR1L (GeneID 56181) | 3 | -0.959 | 62.8 | -0.927 | 89.6 | inactive
CTU2 (GeneID 348180) | 1 | -0.33 | 75.3 | 0.428 | 75.2 | inactive
CTU2 (GeneID 348180) | 2 | -0.655 | 68.9 | -0.561 | 89.2 | inactive
CTU2 (GeneID 348180) | 3 | 0.665 | 95.1 | 0.074 | 104 | inactive
LRRC74BNL (GeneID 113691) | 1 | -0.597 | 70 | -0.588 | 91.3 | inactive
LRRC74BNL (GeneID 113691) | 2 | -0.438 | 73.2 | 0.265 | 76.2 | inactive
LRRC74BNL (GeneID 113691) | 3 | 0.801 | 97.8 | -0.0746 | 111 | inactive
FABP1 (GeneID 2168) | 1 | -1.51 | 52 | -1.16 | 78.7 | inactive
FABP1 (GeneID 2168) | 2 | -0.913 | 63.7 | -1.05 | 93.8 | inactive
FABP1 (GeneID 2168) | 3 | -1.3 | 56 | -1.19 | 85.6 | inactive
KRTAP24-1 (GeneID 643803) | 1 | -0.27 | 76.5 | 0.129 | 82.7 | inactive
KRTAP24-1 (GeneID 643803) | 2 | -0.0803 | 80.3 | -0.0447 | 90.8 | inactive
KRTAP24-1 (GeneID 643803) | 3 | 0.727 | 96.3 | 0.74 | 88.6 | inactive
CLEC4D (GeneID 338339) | 1 | 0.502 | 91.9 | 1.38 | 71.3 | inactive
CLEC4D (GeneID 338339) | 2 | -1.14 | 59.2 | -1.55 | 99.5 | inactive
CLEC4D (GeneID 338339) | 3 | -0.0495 | 80.9 | -0.0577 | 91.8 | inactive
TFIP11 (GeneID 24144) | 1 | 1.45 | 111 | 0.785 | 101 | inactive
TFIP11 (GeneID 24144) | 2 | -1.51 | 51.8 | -0.532 | 66.6 | inactive
TFIP11 (GeneID 24144) | 3 | 0.044 | 82.8 | -0.00229 | 92.5 | inactive
PDC (GeneID 5132) | 1 | 0.621 | 94.2 | 1.26 | 75.5 | inactive
PDC (GeneID 5132) | 2 | -0.487 | 72.2 | -1.33 | 114 | inactive
PDC (GeneID 5132) | 3 | 0.27 | 87.3 | 0.601 | 83.2 | inactive
TMEM132E-DT (GeneID 400591) | 1 | 0.954 | 101 | 2.47 | 58.9 | inactive
TMEM132E-DT (GeneID 400591) | 2 | 1.18 | 105 | 1.75 | 74.1 | inactive
TMEM132E-DT (GeneID 400591) | 3 | 1.08 | 103 | 1.07 | 87.3 | inactive
SPAG6 (GeneID 9576) | 1 | -0.328 | 75.4 | 0.413 | 75.5 | inactive
SPAG6 (GeneID 9576) | 2 | 1.19 | 105 | 0.814 | 95.1 | inactive
SPAG6 (GeneID 9576) | 3 | 3.13 | 144 | 2.14 | 91.6 | active

Entries above whose gene name starts with S or s:
Gene | reagent | total luciferase, z-score | total luciferase, % of control | luciferase per cell, z-score | viable cells, % of control | activity call
SPAG6 (GeneID 9576) | 1 | -0.328 | 75.4 | 0.413 | 75.5 | inactive
SPAG6 (GeneID 9576) | 2 | 1.19 | 105 | 0.814 | 95.1 | inactive
SPAG6 (GeneID 9576) | 3 | 3.13 | 144 | 2.14 | 91.6 | active

Next entries follow:
Gene | reagent | total luciferase, z-score | total luciferase, % of control | luciferase per cell, z-score | viable cells, % of control | activity call
ACADSB (GeneID 36) | 1 | -0.868 | 64.6 | -1.4 | 104 | inactive
ACADSB (GeneID 36) | 2 | -0.434 | 73.3 | -1.11 | 110 | inactive
ACADSB (GeneID 36) | 3 | 0.761 | 97 | 1.11 | 81 | inactive
PTTG2 (GeneID 10744) | 1 | -0.957 | 62.9 | -0.758 | 85.8 | inactive
PTTG2 (GeneID 10744) | 2 | -0.17 | 78.5 | -0.241 | 93.5 | inactive
PTTG2 (GeneID 10744) | 3 | 0.418 | 90.2 | 0.28 | 93.6 | inactive
TALDO1 (GeneID 6888) | 1 | -0.344 | 75 | 0.295 | 77.6 | inactive
TALDO1 (GeneID 6888) | 2 | 2.44 | 130 | 1.66 | 94.3 | inactive
TALDO1 (GeneID 6888) | 3 | -0.662 | 68.7 | -0.885 | 96.9 | inactive
ST8SIA3 (GeneID 51046) | 1 | 1.46 | 111 | 1.17 | 91.1 | inactive
ST8SIA3 (GeneID 51046) | 2 | 1.54 | 113 | 1.2 | 91.6 | inactive
ST8SIA3 (GeneID 51046) | 3 | 0.781 | 97.4 | 0.237 | 102 | inactive
SLC35E2A (GeneID 9906) | 1 | -0.124 | 79.4 | -0.207 | 93.7 | inactive
SLC35E2A (GeneID 9906) | 2 | 2.72 | 136 | 1.19 | 111 | inactive
SLC35E2A (GeneID 9906) | 3 | -0.415 | 73.6 | -0.27 | 88.3 | inactive
ISL1-DT (GeneID 642366) | 1 | 0.79 | 97.6 | 0.698 | 90.8 | inactive
ISL1-DT (GeneID 642366) | 2 | -0.265 | 76.6 | -0.159 | 89.3 | inactive
ISL1-DT (GeneID 642366) | 3 | 0.0566 | 83 | -0.339 | 101 | inactive
LENG8 (GeneID 114823) | 1 | -0.212 | 77.7 | -0.26 | 93 | inactive
LENG8 (GeneID 114823) | 2 | 0.715 | 96.1 | 0.858 | 85.7 | inactive
LENG8 (GeneID 114823) | 3 | -0.482 | 72.3 | -0.36 | 88.8 | inactive
